The values that follow come from patent publication US20260183295A1, “METHODS AND COMPOSITIONS FOR TREATING CANCER” (Onconova Therapeutics, Inc., priority 2022, published 2026).

The subject of the series is MDA-MB-231 cells. The experiment in a line: Phosphoproteomic analysis, number of deregulated phosphopeptides. Conditions: 5 μM, 2 hours. Type of series: cell-based.
The mark [1] stands for this setting: specific to the treatment (FIG. 6 Venn diagram).

For the compound `CN1CCN(c2ccc(Nc3ncc4cc(C#N)c(=O)n(C5CCCC5)c4n3)cc2)CC1` [Compound 1, 8-cyclopentyl-2-((4-(4-methylpiperazin-1-yl)phenyl)amino)-7-oxo-7,8-dihydropyrido[2,3-d]pyrimidine-6-carbonitrile], under “shared by both treatments”, the “phosphopeptides downregulated when treated with Compound 1 or Comparator 1” value was 80 and the “phosphopeptides upregulated when treated with Compound 1 or Comparator 1” value came to 1. Under setting [1], the phosphopeptides downregulated was 350 and the phosphopeptides upregulated came out at 155.
